# Some of the results follow.
# Chains of the proteins cited; added tags and fusions are not shown. Lines headed by an entry give the natural chain unless they say otherwise; changes in a name come on top.
# UniProt P08922: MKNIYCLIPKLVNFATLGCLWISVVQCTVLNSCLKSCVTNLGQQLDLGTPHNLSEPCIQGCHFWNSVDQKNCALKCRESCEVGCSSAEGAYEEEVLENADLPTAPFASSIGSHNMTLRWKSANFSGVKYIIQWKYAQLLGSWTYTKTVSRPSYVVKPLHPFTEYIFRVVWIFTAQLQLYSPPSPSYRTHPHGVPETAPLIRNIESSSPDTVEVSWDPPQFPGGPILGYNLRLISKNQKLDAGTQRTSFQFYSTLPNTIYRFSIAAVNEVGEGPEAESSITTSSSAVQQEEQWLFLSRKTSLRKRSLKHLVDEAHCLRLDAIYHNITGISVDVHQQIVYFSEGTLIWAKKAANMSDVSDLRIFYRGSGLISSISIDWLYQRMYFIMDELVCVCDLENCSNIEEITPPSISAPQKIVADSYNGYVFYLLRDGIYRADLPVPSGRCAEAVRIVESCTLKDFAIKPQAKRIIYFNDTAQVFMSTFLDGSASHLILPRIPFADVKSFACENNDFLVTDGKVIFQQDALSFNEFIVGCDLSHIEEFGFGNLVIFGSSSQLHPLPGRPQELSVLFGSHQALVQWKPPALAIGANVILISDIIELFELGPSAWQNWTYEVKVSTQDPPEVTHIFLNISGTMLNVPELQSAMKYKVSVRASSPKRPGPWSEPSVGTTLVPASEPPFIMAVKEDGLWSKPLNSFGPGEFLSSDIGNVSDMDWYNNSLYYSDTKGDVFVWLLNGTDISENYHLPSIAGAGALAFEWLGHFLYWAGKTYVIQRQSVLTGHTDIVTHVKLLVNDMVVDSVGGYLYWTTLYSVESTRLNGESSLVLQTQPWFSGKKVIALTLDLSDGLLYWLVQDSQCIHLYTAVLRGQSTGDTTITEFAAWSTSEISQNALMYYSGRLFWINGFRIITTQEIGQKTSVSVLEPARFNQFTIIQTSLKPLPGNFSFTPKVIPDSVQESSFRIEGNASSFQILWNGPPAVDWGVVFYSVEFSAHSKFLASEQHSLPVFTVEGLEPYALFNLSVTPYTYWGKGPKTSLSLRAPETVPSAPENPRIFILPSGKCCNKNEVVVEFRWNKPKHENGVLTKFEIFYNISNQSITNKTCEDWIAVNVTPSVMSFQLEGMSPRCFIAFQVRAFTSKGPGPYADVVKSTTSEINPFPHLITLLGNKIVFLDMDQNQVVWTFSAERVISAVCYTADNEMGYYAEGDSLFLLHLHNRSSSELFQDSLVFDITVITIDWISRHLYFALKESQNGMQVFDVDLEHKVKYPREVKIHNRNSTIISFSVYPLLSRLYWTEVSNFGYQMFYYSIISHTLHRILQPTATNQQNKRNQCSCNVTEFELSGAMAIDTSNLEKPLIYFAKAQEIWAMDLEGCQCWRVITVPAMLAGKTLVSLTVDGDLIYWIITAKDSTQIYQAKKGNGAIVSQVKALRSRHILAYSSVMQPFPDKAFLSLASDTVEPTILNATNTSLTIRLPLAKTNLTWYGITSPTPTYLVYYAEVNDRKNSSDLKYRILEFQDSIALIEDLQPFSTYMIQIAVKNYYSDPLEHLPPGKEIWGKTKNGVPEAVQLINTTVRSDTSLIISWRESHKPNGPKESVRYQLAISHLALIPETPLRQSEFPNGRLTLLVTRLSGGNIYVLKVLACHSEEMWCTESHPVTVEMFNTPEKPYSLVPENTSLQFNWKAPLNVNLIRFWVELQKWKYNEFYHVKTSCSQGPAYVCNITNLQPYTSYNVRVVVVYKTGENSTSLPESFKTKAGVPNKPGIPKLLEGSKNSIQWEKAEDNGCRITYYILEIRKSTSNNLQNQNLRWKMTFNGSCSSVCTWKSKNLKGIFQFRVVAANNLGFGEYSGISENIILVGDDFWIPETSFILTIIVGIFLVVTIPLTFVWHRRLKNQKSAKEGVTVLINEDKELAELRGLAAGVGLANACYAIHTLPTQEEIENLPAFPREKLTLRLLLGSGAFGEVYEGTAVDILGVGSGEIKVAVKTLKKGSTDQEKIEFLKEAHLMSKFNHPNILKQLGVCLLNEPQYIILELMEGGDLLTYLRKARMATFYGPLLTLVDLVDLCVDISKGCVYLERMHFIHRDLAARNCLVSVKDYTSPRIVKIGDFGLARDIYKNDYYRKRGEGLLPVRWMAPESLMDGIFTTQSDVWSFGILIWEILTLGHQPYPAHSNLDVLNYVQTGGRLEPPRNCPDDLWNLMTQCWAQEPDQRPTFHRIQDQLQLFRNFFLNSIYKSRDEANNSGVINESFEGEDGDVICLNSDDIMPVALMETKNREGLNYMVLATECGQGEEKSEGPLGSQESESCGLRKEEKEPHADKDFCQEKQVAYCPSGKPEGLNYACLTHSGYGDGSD
# UniProt Q8IXW5, whole entry, looked up: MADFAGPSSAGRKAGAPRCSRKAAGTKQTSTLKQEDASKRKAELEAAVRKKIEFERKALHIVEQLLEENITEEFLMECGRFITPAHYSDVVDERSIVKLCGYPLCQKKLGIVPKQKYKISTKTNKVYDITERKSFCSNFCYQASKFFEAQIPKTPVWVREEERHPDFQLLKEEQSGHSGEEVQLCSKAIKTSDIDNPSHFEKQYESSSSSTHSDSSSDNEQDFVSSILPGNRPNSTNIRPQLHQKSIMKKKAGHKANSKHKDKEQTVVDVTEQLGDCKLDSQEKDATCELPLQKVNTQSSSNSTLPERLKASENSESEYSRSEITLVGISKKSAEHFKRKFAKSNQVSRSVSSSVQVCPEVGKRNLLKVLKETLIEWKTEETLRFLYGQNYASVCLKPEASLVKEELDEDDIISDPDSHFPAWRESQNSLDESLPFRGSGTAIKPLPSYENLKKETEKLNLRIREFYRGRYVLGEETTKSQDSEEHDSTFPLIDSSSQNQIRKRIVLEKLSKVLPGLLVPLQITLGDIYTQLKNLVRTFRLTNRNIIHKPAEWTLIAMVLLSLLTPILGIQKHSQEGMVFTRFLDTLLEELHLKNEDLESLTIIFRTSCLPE
# UniProt Q8TA86: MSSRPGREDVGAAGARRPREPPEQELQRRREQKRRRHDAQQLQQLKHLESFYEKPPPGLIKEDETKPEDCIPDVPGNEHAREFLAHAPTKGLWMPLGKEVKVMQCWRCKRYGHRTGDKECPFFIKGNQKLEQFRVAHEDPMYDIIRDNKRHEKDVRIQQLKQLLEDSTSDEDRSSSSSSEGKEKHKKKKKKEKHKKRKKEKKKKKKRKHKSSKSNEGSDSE
# UniProt P60602: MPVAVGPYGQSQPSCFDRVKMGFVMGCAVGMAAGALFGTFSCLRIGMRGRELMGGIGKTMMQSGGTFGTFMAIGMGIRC
# UniProt Q96P16: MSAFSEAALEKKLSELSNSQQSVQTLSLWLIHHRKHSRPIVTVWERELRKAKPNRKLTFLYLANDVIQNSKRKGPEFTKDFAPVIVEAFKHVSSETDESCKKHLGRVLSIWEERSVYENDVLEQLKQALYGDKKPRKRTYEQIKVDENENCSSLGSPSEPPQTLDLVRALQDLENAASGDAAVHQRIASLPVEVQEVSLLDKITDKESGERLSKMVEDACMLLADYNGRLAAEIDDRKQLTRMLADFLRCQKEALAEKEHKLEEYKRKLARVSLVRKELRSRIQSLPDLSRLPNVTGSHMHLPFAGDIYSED
# UniProt Q96CM3: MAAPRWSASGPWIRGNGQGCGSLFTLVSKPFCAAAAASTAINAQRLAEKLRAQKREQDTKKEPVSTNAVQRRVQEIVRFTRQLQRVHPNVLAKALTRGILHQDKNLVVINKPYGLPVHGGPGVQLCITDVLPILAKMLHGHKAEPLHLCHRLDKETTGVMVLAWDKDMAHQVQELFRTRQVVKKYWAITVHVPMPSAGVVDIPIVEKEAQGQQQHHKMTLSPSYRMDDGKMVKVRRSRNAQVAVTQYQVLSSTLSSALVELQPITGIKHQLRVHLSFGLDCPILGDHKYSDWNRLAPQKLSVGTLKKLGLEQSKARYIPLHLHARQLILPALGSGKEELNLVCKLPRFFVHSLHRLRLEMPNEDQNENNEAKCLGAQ
# UniProt P78317: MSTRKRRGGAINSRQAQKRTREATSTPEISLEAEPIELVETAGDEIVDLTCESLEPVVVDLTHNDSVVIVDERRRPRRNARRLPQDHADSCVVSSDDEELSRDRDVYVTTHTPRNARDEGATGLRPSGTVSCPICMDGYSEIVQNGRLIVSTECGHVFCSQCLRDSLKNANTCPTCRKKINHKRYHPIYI
# UniProt Q5M7Z0: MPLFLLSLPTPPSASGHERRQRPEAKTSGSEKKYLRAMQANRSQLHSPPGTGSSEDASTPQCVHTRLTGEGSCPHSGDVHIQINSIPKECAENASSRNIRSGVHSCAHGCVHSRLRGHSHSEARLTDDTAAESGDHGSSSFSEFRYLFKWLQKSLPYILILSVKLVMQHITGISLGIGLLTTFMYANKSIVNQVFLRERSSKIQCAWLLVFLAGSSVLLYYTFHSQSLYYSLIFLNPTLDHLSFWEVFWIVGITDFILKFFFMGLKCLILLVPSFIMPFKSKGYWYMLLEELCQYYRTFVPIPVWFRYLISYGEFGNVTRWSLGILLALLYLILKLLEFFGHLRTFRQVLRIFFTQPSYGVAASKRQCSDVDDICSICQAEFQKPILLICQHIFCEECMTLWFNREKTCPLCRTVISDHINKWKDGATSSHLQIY
# UniProt Q969K3: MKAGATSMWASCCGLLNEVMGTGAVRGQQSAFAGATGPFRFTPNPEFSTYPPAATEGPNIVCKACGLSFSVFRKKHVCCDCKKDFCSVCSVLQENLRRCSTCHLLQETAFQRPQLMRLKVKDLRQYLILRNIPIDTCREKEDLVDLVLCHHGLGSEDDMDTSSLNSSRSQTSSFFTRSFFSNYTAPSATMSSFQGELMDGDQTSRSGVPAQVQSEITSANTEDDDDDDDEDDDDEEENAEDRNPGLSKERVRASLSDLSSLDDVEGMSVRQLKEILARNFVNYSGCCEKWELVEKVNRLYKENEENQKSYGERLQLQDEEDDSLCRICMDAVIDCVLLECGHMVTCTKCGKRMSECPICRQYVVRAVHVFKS
# UniProt O75582, whole entry, looked up: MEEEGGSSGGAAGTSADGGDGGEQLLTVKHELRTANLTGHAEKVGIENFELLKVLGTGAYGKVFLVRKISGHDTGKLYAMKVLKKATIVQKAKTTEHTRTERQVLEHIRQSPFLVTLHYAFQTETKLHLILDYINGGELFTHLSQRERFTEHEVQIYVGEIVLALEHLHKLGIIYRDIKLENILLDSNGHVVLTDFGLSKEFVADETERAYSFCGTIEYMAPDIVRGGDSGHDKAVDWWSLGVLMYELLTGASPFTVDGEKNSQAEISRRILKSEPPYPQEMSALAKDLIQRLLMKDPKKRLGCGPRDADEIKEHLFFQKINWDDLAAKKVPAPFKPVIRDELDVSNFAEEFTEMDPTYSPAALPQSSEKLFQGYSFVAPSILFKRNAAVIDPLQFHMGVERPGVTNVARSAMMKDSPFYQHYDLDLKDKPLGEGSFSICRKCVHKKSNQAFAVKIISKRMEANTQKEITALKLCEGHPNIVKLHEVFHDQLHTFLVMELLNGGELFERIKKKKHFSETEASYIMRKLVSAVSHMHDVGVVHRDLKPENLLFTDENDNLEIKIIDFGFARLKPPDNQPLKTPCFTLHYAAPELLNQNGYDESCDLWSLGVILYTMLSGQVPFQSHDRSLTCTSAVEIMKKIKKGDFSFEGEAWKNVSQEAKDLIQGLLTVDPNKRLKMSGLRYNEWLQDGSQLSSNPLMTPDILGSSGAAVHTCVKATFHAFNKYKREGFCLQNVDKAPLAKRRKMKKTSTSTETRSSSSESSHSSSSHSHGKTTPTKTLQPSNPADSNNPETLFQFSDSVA
# UniProt Q9NYV6: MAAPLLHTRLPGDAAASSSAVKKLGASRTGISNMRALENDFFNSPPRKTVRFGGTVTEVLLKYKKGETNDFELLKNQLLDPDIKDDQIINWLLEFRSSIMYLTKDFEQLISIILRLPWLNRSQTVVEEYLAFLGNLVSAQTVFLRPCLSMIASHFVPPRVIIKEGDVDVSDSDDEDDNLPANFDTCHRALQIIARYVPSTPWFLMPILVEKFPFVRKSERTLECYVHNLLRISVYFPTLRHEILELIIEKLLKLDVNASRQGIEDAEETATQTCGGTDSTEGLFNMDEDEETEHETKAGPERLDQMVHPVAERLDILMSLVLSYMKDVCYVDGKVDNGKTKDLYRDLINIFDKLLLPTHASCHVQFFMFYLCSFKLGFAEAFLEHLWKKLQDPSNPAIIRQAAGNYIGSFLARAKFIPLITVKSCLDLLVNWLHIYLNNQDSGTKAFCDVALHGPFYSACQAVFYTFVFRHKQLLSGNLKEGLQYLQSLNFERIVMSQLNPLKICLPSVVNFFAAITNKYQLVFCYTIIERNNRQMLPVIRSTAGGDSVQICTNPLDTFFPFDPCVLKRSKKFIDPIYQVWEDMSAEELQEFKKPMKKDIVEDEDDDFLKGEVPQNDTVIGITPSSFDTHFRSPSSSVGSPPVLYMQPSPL
# Compound: CC1=C(C=C(C=C1)NC(=O)C2=CC(=CC=C2)C(C)(C)C#N)NC3=CC4=C(C=C3)N=CN(C4=O)C
# Test: log2 fold change, soluble protein after heating vs DMSO (PISA); higher = thermal stabilisation; K562 cells, 10 uM, 30 min; active = over 0.2 and 3.5 SD of the protein, either way, in both replicates (recomputed)
# Procedure, shortened: (§1)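 K562 cells at 2×10^6 cells/mL were treated with 10 μM compound for 30 min. Aliquots were heated for 3 min across 48°C-58°C, pooled, and extracted in PBS with 0.5% NP-40 at 4°C; soluble protein was the supernatant after 21,000xg for 90 min. Soluble protein was quantified by TMTpro 16plex LC-MS/MS with channel sums equalised, and reported as log2 fold change in thermal stability against DMSO controls, with values from duplicates.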
row,Target,log2 fold change
1,"RPS7, A0A2R8Y623",inactive: -0.048
2,RPL10 (UniProt F8W7C6),inactive: 0.098
3,ROS1 (UniProt P08922),inactive: -0.288
4,RPAP2 (UniProt Q8IXW5),inactive: -0.042
5,RPL22L1 (UniProt Q6P5R6),inactive: 0.065
6,RPLP0 (UniProt F8VWV4),inactive: 0.015
7,RP9 (UniProt Q8TA86),inactive: -0.057
8,RPL37 (UniProt P61927),inactive: 0.016
9,RNF31 (UniProt Q96EP0),inactive: 0.012
10,ROMO1 (UniProt P60602),inactive: 0.087
11,RPRD1A (UniProt Q96P16),inactive: -0.03
12,RPUSD4 (UniProt Q96CM3),inactive: 0.011
13,RNF40 (UniProt O75150),inactive: 0.52
14,RNF4 (UniProt P78317),inactive: 0.184

# Compound: CC1=C(C=C(C=C1)NC(=O)C2=CC(=CC=C2)N(C)C)NC(=O)C3=CC=C(C=C3)O
# Test: as above
# Procedure, shortened: as §1
row,Target,log2 fold change
1,"RPS7, A0A2R8Y623",inactive: 0.256
2,RRP1 (UniProt P56182),inactive: -0.187
3,RPE (UniProt Q96AT9),inactive: -0.152
4,RNF26 (UniProt Q9BY78),inactive: 0.012
5,RNFT1 (UniProt Q5M7Z0),inactive: -0.135
6,RPAP2 (UniProt Q8IXW5),inactive: 0.005
7,RPP30 (UniProt Q5VU11),inactive: 0.162
8,RNF34 isoform 2 (UniProt Q969K3),inactive: 0.062
9,RP9 (UniProt Q8TA86),inactive: 0.047
10,RPS6KA5 (UniProt O75582),inactive: -0.039
11,RPL7L1 (UniProt Q6DKI1),inactive: 0.044
12,RPL37 (UniProt P61927),inactive: 0.007
13,ROMO1 (UniProt P60602),inactive: -0.011
14,RPRD1A (UniProt Q96P16),inactive: -0.049
15,RPUSD4 (UniProt Q96CM3),inactive: -0.153
16,ROGDI (UniProt Q9GZN7),inactive: 0.152
17,RPS3 (UniProt E9PJN9),inactive: 0.125
18,RNF40 (UniProt O75150),inactive: -0.007
19,RPRD2 (UniProt Q5VT52),inactive: -0.011

# Compound: CC1=CC=C(C=C1)SC2=C3C=C(SC3=CN=C2)C(=O)N
# Test: as above
# Procedure, shortened: as §1
row,Target,log2 fold change
1,RPL10 (UniProt F8W7C6),inactive: 0.044
2,ROS1 (UniProt P08922),inactive: -0.076
3,RPE (UniProt Q96AT9),inactive: 0.074
4,RRN3 (UniProt Q9NYV6),inactive: 0.12
5,RNFT1 (UniProt Q5M7Z0),inactive: 0.026
6,RNF34 isoform 2 (UniProt Q969K3),inactive: 0.026
7,RPS19 (UniProt M0R2L9),inactive: -0.169
8,RP9 (UniProt Q8TA86),inactive: 0.044
9,RPS6KA5 (UniProt O75582),inactive: 0.029
10,RPL37 (UniProt P61927),inactive: -0.28
11,ROMO1 (UniProt P60602),inactive: 0.005
12,RPUSD4 (UniProt Q96CM3),inactive: 0.09
13,RPUSD3 (UniProt Q6P087),inactive: -0.103
14,RPRD2 (UniProt Q5VT52),inactive: -0.022
15,RNF4 (UniProt P78317),inactive: -0.128

# Compound: CC1=NC(=CC=C1)C2=C(N=C(N2)C(C)(C)C)C3=CC4=NC=CN=C4C=C3
# Test: as above
# Procedure, shortened: as §1
row,Target,log2 fold change
1,"RPS7, A0A2R8Y623",inactive: -0.564
2,RRP1 (UniProt P56182),inactive: -0.084
3,ROS1 (UniProt P08922),inactive: -0.107
4,RPE (UniProt Q96AT9),inactive: 0.079
5,RRN3 (UniProt Q9NYV6),inactive: 0.156
6,RPAP2 (UniProt Q8IXW5),inactive: -0.078
7,RPL22L1 (UniProt Q6P5R6),inactive: -0.049
8,RPP30 (UniProt Q5VU11),inactive: -0.031
9,RPLP0 (UniProt F8VWV4),inactive: -0.064
10,RNF34 isoform 2 (UniProt Q969K3),inactive: 0.025
11,RP9 (UniProt Q8TA86),inactive: -0.091
12,RPS6KA5 (UniProt O75582),inactive: -0.017
13,RPL7L1 (UniProt Q6DKI1),inactive: -0.044
14,RPL37 (UniProt P61927),inactive: -0.122
15,RPS6KB2 (UniProt Q9UBS0),inactive: -0.018
16,RPRD2 (UniProt Q5VT52),inactive: -0.059

# Compound: CCCCN(Cc1ccc(C(=O)NO)cc1)C(=O)Nc1ccccc1 [Nexturastat A]
# Test: as above
# Procedure, shortened: as §1
row,Target,log2 fold change
1,RPL10 (UniProt F8W7C6),inactive: 0.109
2,RPE (UniProt Q96AT9),inactive: -0.084
3,RRN3 (UniProt Q9NYV6),inactive: 0.281
4,RNFT1 (UniProt Q5M7Z0),inactive: -0.045
5,RPAP2 (UniProt Q8IXW5),inactive: 0.207
6,RPL22L1 (UniProt Q6P5R6),inactive: -0.029
7,RPGR (UniProt Q92834),inactive: -0.291
8,RPLP0 (UniProt F8VWV4),inactive: 0.181
9,RNF34 isoform 2 (UniProt Q969K3),inactive: -0.056
10,RP9 (UniProt Q8TA86),inactive: 0.155
11,RPS6KA5 (UniProt O75582),inactive: 0.013
12,RPL7L1 (UniProt Q6DKI1),inactive: 0.359
13,RNF31 (UniProt Q96EP0),inactive: 0.098
14,ROMO1 (UniProt P60602),inactive: -0.066
15,RPS6KB2 (UniProt Q9UBS0),inactive: 0.205
16,RPRD1A (UniProt Q96P16),inactive: 0.013
17,RPUSD4 (UniProt Q96CM3),inactive: 0.389
18,RPRD2 (UniProt Q5VT52),inactive: 0.013
19,RNF4 (UniProt P78317),inactive: 0.107
